Reference: patent publication US20250074896A1, “ARYLTETRAHYDROPYRIDAZINE DERIVATIVE OR SALT THEREOF AND INSECTICIDAL AGENT CONTAINING THE COMPOUND AND METHOD FOR USING SAME” (NIHON NOHYAKU CO., LTD., priority 2021, published 2025)
Some entries share one result that the patent states for a list of compounds.

Tested on: Small Brown Planthopper (Laodelphax striatellus)
Experiment: Insecticidal test on small brown planthopper (dipped rice seedlings, 3rd-instar larvae)
Type: in vivo
Settings: rice seedlings dipped 30 seconds, 8 days after inoculation
Source text: • A: the mortality rate is 100%. • B: the mortality rate is 90 to 99%. • C: the mortality rate is 80 to 89%. • D: the mortality rate is 50 to 79%. • E: the mortality rate is 0 to 49%.
Insecticidal Test on Small Brown Planthopper (Laodelphax striatellus)
The compounds represented by the general formula (1) of the present invention or salts thereof were separately dispersed in water and diluted to 50 ppm or 500 ppm. Rice plant seedlings (variety: Nihonbare) were dipped in the agrochemical dispersions for 30 seconds. After air-dried, each seedling was put into a separate glass test tube and inoculated with ten 3rd-instar larvae of small brown planthopper, and then the glass test tubes were capped with cotton plugs. At 8 days after the inoculation, the numbers of surviving larvae and dead larvae were counted, the corrected mortality rate was calculated according to the formula shown below, and the insecticidal efficacy was evaluated according to the criteria of Test Example 1.

SMILES | insecticidal efficacy (corrected mortality rate) against small brown planthopper (50 ppm) | insecticidal efficacy (corrected mortality rate) against small brown planthopper (500 ppm)
CCCNC(=O)N1C(=O)C(C(=S)Nc2ccc(F)cc2)=C(O)CN1c1ccc(C(F)(F)F)nc1 [4-2] | A (the mortality rate is 100%) | A (the mortality rate is 100%)
COC(=O)N1C(=O)C(C(=O)Nc2cccc(Br)n2)=C(O)CN1c1ccc(Br)nc1 [3-403] | A (the mortality rate is 100%) | A (the mortality rate is 100%)
COC(=O)N1C(=O)C(C(=O)NN2CCOCC2)=C(O)CN1c1ccc(C(F)(F)F)nc1 [3-143] | – | A (the mortality rate is 100%)
COC(=O)N1C(=O)C(C(=O)Nc2ccn(C)n2)=C(O)CN1c1ccc(Br)nc1 [3-391] | A (the mortality rate is 100%) | A (the mortality rate is 100%)
O=C(NCc1cnccn1)C1=C(O)CN(c2ccc(Br)nc2)NC1=O [1-239] | – | A (the mortality rate is 100%)
COc1ccc(N2CC(O)=C(C(=S)Nc3ccc(F)cc3)C(=O)N2C(=O)OC(C)(C)C)cn1 [4-46] | A (the mortality rate is 100%) | A (the mortality rate is 100%)
COC(=O)CNC(=O)C1=C(O)CN(c2ccc(C(F)(F)F)nc2)NC1=O [1-131] | – | A (the mortality rate is 100%)
COC(=O)N1C(=O)C(C(=S)Nc2ccc(OC)cc2)=C(O)CN1c1cnc(C#N)c(C)c1 [4-121] | A (the mortality rate is 100%) | A (the mortality rate is 100%)
COC(=O)N1C(=O)C(C(=S)Nc2ccc(F)nc2)=C(O)CN1c1ccc(C#N)nc1 [4-57] | A (the mortality rate is 100%) | A (the mortality rate is 100%)
CC(C)COC(=O)N1C(=O)C(C(=O)Nc2nccs2)=C(O)CN1c1ccc(C(F)(F)F)nc1 [3-278] | – | A (the mortality rate is 100%)
COC(=O)N1C(=O)C(C(=O)Nc2ccc(Cl)nc2)=C(O)CN1c1ccc(Br)nc1 [3-112] | A (the mortality rate is 100%) | A (the mortality rate is 100%)
COCCOC(=O)N1C(=O)C(C(=O)Nc2ccc(F)cn2)=C(O)CN1c1ccc(C#N)c(OC)c1 [3-352] | A (the mortality rate is 100%) | A (the mortality rate is 100%)
CC(C)(C)OC(=O)N1C(=O)C(C(=S)Nc2cccc3ccccc23)=C(O)CN1c1ccc(C(F)(F)F)nc1 [4-27] | – | A (the mortality rate is 100%)
CNC(=O)C1=C(O)CN(c2ccc(C#N)c(C(F)(F)F)c2)N(C(=O)OCC(C)C)C1=O [3-285] | – | A (the mortality rate is 100%)
COC(=O)N1C(=O)C(C(=O)Nc2ccc(F)cn2)=C(O)CN1c1ccc(-c2nnnn2C)nc1 [3-412] | A (the mortality rate is 100%) | A (the mortality rate is 100%)
COC(=O)N1C(=O)C(C(=O)Nc2cc(F)c(F)c(F)c2)=C(O)CN1c1ccc(-c2nnnn2C)nc1 [3-634] | A (the mortality rate is 100%) | A (the mortality rate is 100%)
COC(=O)N1C(=O)C(C(=S)Nc2ccc(C#N)cc2)=C(O)CN1c1cnc(C#N)c(C)c1 [4-122] | A (the mortality rate is 100%) | A (the mortality rate is 100%)
CN(C)NC(=O)C1=C(O)CN(c2ccc(C(F)(F)F)nc2)NC1=O [1-134] | – | A (the mortality rate is 100%)
CNC(=O)C1=C(O)CN(c2cnc(C#N)c(C)c2)N(C(=O)OCC(C)C)C1=O [3-281] | A (the mortality rate is 100%) | A (the mortality rate is 100%)
COC(=O)N1C(=O)C(C(=O)Nc2cccc(C#N)c2)=C(O)CN1c1ccc(C#N)c(OC)c1 [3-501] | A (the mortality rate is 100%) | A (the mortality rate is 100%)
COC(=O)N1C(=O)C(C(=O)Nc2cccnc2F)=C(O)CN1c1ccc(C#N)cc1 [3-457] | A (the mortality rate is 100%) | A (the mortality rate is 100%)

SMILES | insecticidal efficacy (corrected mortality rate) against small brown planthopper (50 ppm) | insecticidal efficacy (corrected mortality rate) against small brown planthopper (500 ppm)
COC(=O)N1C(=O)C(C(=S)Nc2ccc(C#N)cc2)=C(O)CN1c1ccc(C#N)nc1 [4-62] | A (the mortality rate is 100%) | A (the mortality rate is 100%)
COC(=O)N1C(=O)C(C(=O)Nc2cccc(C#N)c2)=C(O)CN1c1ccc(Br)nc1 [3-397] | A (the mortality rate is 100%) | A (the mortality rate is 100%)
N#Cc1ccc(N2CC(O)=C(C(=O)NCc3cnccn3)C(=O)N2)cc1 [1-224] | – | A (the mortality rate is 100%)
COCCNC(=O)C1=C(O)CN(c2cnc(C#N)c(Cl)c2)NC1=O [1-192] | – | A (the mortality rate is 100%)
COC(=O)N1C(=O)C(C(=O)Nc2cnc(Cl)nc2)=C(O)CN1c1ccc(C(F)(F)F)nc1 [3-123] | A (the mortality rate is 100%) | A (the mortality rate is 100%)
COC(=O)N1C(=O)C(C(=S)Nc2ccc(OC)cc2)=C(O)CN1c1ccc(C#N)nc1 [4-73] | A (the mortality rate is 100%) | A (the mortality rate is 100%)
CSCCNC(=O)C1=C(O)CN(c2ccc(C(F)(F)F)nc2)N(C(=O)OCC(C)C)C1=O [3-272] | – | A (the mortality rate is 100%)
COC(=O)N1C(=O)C(C(=O)Nc2cccnc2)=C(O)CN1c1ccc(Br)nc1 [3-520] | A (the mortality rate is 100%) | A (the mortality rate is 100%)
COC(=O)N1C(=O)C(C(=O)Nc2cc(C)n(C)n2)=C(O)CN1c1ccc(Br)nc1 [3-532] | A (the mortality rate is 100%) | A (the mortality rate is 100%)
COCCOC(=O)N1C(=O)C(C(=O)Nc2ccc(F)nc2)=C(O)CN1c1ccc(C#N)c(OC)c1 [3-350] | A (the mortality rate is 100%) | A (the mortality rate is 100%)
COC(=O)N1C(=O)C(C(=O)Nc2ccc(OC)cc2)=C(O)CN1c1ccc(C#N)cc1 [3-451] | – | A (the mortality rate is 100%)
COCCNC(=O)C1=C(O)CN(c2ccc(C(F)(F)F)nc2)N(C(=O)OCC(C)C)C1=O [3-271] | A (the mortality rate is 100%) | A (the mortality rate is 100%)
COCCNC(=O)C1=C(O)CN(c2ccc(Cl)nc2)N(C(=O)OCC(C)C)C1=O [3-280] | A (the mortality rate is 100%) | A (the mortality rate is 100%)
COC(=O)N1C(=O)C(C(=O)NCc2cnccn2)=C(O)CN1c1ccc(C#N)cc1 [3-447] | – | A (the mortality rate is 100%)
COC(=O)N1C(=O)C(C(=S)Nc2cnn(C)c2)=C(O)CN1c1ccc(Br)nc1 [4-80] | A (the mortality rate is 100%) | A (the mortality rate is 100%)
Cn1cc(NC(=O)C2=C(O)CN(c3cnc(C#N)c(Cl)c3)NC2=O)cn1 [1-177] | A (the mortality rate is 100%) | A (the mortality rate is 100%)
CCOC(=O)N1C(=O)C(C(=O)Nc2ccn(C)n2)=C(O)CN1c1ccc(Cl)nc1 [3-653] | A (the mortality rate is 100%) | A (the mortality rate is 100%)
COC(=O)N1C(=O)C(C(=S)Nc2ccc(F)cn2)=C(O)CN1c1ccc(C#N)nc1 [4-56] | A (the mortality rate is 100%) | A (the mortality rate is 100%)
COC(=O)N1C(=O)C(C(=O)Nc2cc(Cl)ccn2)=C(O)CN1c1ccc(Cl)nn1 [3-414] | – | A (the mortality rate is 100%)
COC(=O)N1C(=O)C(C(=S)Nc2ccn(C)n2)=C(O)CN1c1ccc(C#N)cc1 [4-78] | – | A (the mortality rate is 100%)
COCCOC(=O)N1C(=O)C(C(=S)Nc2cccc(C)c2)=C(O)CN1c1ccc(C#N)nc1 [4-71] | – | A (the mortality rate is 100%)
